Results are given in words; binding and its absence hold for the method and conditions named. Some binding calls cover weakened binding; strength is not graded here. For part of these data: Where a sequence is shown, tags or fusion partners need not be part of it.
Columns and labels:
[1] = molecular target: T1, human MCAM-Fc protein (extracellular domain of human MCAM fused to human IgG) (human) (UniProt P43121); test: summary of Examples 2-3
T1 sequence: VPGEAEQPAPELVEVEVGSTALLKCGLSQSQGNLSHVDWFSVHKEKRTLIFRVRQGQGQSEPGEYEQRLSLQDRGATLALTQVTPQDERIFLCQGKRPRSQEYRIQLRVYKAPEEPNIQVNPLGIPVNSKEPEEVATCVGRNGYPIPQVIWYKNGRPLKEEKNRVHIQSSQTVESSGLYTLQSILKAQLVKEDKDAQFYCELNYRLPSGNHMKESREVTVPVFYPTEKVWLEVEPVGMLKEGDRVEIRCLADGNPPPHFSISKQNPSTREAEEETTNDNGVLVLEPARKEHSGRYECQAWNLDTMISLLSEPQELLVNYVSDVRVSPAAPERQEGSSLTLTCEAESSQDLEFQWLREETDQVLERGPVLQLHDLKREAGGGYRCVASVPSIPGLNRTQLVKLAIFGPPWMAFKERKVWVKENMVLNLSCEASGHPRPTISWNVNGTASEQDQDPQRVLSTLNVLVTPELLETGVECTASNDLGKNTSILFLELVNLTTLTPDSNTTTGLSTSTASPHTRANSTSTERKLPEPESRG

[2] = molecular target: T2, human MCAM (full length, expressed on the surface of transfected cells) (human) (UniProt P43121); test: cells expressing human MCAM
T2 sequence: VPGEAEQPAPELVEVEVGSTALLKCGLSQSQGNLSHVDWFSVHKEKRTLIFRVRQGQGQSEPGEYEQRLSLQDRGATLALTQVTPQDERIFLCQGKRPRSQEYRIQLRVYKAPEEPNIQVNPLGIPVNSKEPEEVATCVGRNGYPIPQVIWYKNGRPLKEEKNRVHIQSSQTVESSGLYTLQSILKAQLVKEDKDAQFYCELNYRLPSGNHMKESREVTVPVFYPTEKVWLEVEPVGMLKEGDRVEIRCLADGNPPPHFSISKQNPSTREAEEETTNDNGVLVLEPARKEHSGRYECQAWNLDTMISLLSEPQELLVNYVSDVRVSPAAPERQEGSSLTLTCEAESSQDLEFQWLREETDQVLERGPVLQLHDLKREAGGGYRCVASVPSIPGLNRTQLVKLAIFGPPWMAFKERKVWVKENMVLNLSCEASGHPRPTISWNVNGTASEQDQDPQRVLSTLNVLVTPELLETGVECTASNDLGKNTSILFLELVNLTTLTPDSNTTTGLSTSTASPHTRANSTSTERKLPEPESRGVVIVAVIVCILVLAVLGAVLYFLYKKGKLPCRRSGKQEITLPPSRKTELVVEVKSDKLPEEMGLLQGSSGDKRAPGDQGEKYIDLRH

[3] = molecular target: T3, combination of human MCAM domains 1 and 2 (MCAMhFc domain construct) (human) (UniProt P43121); test: ForteBio (BLI), MCAMhFc domain on anti-human IgG Fc biosensor, antibody at 5 ug/ml
T3 sequence: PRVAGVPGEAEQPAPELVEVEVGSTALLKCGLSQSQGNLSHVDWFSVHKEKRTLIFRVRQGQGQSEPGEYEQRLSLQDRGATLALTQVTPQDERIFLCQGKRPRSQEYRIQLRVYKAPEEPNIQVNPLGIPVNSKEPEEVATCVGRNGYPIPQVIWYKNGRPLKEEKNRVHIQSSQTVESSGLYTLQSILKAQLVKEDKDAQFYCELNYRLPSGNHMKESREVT

Measured: binding

B1: rat anti-human MCAM monoclonal antibody clone 2120.4.19 (antibody, V domains shown)
VH: QVQLKESGPGLVQPSQTLSLTCTVSGFSLTSNGVSWVRQPPGKGLEWIAAISSGGTTYYNSAFKSRLSISRNTSKSQVLLKMNSLQTEDTAMYFCARRYGYGWYFDFWGPGTMVTVSS
VL: DIRMTQSPSLLSASVGDRVTLNCKASQNIYNSLAWYQQKLGEGPKVLIFNANSLQTGIPSRFSGSGSGTDFTLTISSLQPEDFATYFCQQFYSGYTFGAGTKLELK
binds: all assays above

B2: rat anti-human MCAM monoclonal antibody clone 2107.4.10 (antibody, V domains shown)
VH: QVQLKESGPGLVQSSQTLSLTCTVSGFSLTSNGVSWVRQPPGKGLEWIAAISSGGSTYYNSAFKSRLSISRNTSKSQVLLKMNSLQTEDTGMYFCARHRPFYFDYWGQGVMVTVSS
VL: DIQVTQSPSLLSASVGDRVTLNCKGSQNIYKSLAWFRLKRGEAPKLLIYDANSLQTGIPSRFSGSGSGTDFTLTITSLQPEDVATYFCQQYYSGYTFGAGTKLELK
binds: all assays above
